Measured values reported in patent EP1961762A1, “Inhibitors of protein phosphatase 1/GADD34, preparation and uses thereof” (Institut Gustave Roussy, priority 2007, dated 2008).
At least one structure is not confirmed: it was looked up by name or label, or the drawing left a doubt.

System: CT26 tumour cells
Assay: Anti-tumour vaccination with dying treated CT26 tumour cells, challenge with live tumour cells
Format: in vivo, BALB/c mice
Conditions: dying CT26 cells treated with the agent injected into one flank, live tumour cells into the opposite flank 8 days later

For `C=C(C)[C@@H]1CC[C@]2(C(=O)O)CC[C@]3(C)[C@H](CC[C@@H]4[C@@]5(C)CC[C@H](O)C(C)(C)[C@@H]5CC[C@]43C)[C@@H]12` [betulinic acid], the “immunogenic apoptosis / immunogenic cell death (protection against tumour growth)” value was “failed to induce immunogenic apoptosis”.
